Values from PubChem BioAssay AID1508597 (Cure First, 2020).

- Test: 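Survival screen with siRNA in ovarian cancer cells derived from patients, with or without rucaparib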 (primary screen)
- Cell system: human ovarian carcinoma lines grown from tumours: OCI-P5x (papillary serous) and OCI-C5x (clear cell)
- Knock-down reagent: siRNA pool against human genes, 1.25 pmol siRNA per well
- Timing: 72 h or 96 h, depending on the cell culture
- Treatment: rucaparib 20 µM (about IC30) or vehicle, present until read-out
- Rucaparib or vehicle: Vehicle
- Cell line: OCI-P5x (serous)
- Read-out: 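ATP luminescence measured at 72 or 96 h according to the culture, then normalised and expressed as percent viability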
- Scale: viability, normalised: higher = more viable cells remaining
- Active means: 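Active when normalised viability falls below 80 percent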
- Calls: active = viability under 80%; inactive = viability 80% or more
This is an unselected part of the about 2,100 reagents, in one setting of the screen. 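Calls flag viability under 80% in either arm, not effects specific to rucaparib; the reference for percent is not stated.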 A reagent listed more than once was tested more than once; the source does not tell the runs apart. Not given: the 100% reference.

Gene	technical replicate	viability, normalised (%)	call
MORC3 (MORC family CW-type zinc finger 3)	1	66.3	active
MORC3 (MORC family CW-type zinc finger 3)	2	75.3	active
MORC3 (MORC family CW-type zinc finger 3)	3	69.1	active
ZBTB7A (zinc finger and BTB domain containing 7A)	1	77	active
ZBTB7A (zinc finger and BTB domain containing 7A)	2	92.9	inactive
ZBTB7A (zinc finger and BTB domain containing 7A)	3	96.7	inactive
DROSHA (drosha ribonuclease III)	1	61.9	active
DROSHA (drosha ribonuclease III)	2	67.7	active
DROSHA (drosha ribonuclease III)	3	108	inactive
FASTK (Fas activated serine/threonine kinase)	1	53.7	active
FASTK (Fas activated serine/threonine kinase)	2	72.4	active
FASTK (Fas activated serine/threonine kinase)	3	59.2	active
HIPK1 (homeodomain interacting protein kinase 1)	1	101	inactive
HIPK1 (homeodomain interacting protein kinase 1)	2	84.1	inactive
HIPK1 (homeodomain interacting protein kinase 1)	3	83.3	inactive
RALY (RALY heterogeneous nuclear ribonucleoprotein)	1	54.6	active
RALY (RALY heterogeneous nuclear ribonucleoprotein)	2	72.4	active
RALY (RALY heterogeneous nuclear ribonucleoprotein)	3	60.7	active
AIPL1 (AIP like 1 HSP90 co-chaperone)	1	64.4	active
AIPL1 (AIP like 1 HSP90 co-chaperone)	2	62.9	active
AIPL1 (AIP like 1 HSP90 co-chaperone)	3	67.2	active
SMPDL3A (sphingomyelin phosphodiesterase acid like 3A)	1	68.7	active
SMPDL3A (sphingomyelin phosphodiesterase acid like 3A)	2	62.6	active
SMPDL3A (sphingomyelin phosphodiesterase acid like 3A)	3	66.7	active
SMYD2 (SET and MYND domain containing 2)	1	54.6	active
SMYD2 (SET and MYND domain containing 2)	2	60.2	active
SMYD2 (SET and MYND domain containing 2)	3	76.4	active
PIP4K2B (phosphatidylinositol-5-phosphate 4-kinase type 2 beta)	1	81.8	inactive
PIP4K2B (phosphatidylinositol-5-phosphate 4-kinase type 2 beta)	2	80.1	inactive
PIP4K2B (phosphatidylinositol-5-phosphate 4-kinase type 2 beta)	3	55.1	active
BRIP1 (BRCA1 interacting DNA helicase 1)	1	92.1	inactive
BRIP1 (BRCA1 interacting DNA helicase 1)	1	56.3	active
BRIP1 (BRCA1 interacting DNA helicase 1)	2	76.5	active
BRIP1 (BRCA1 interacting DNA helicase 1)	2	89.7	inactive
BRIP1 (BRCA1 interacting DNA helicase 1)	3	83.8	inactive
BRIP1 (BRCA1 interacting DNA helicase 1)	3	61.7	active
HELLS (helicase, lymphoid specific)	1	77.4	active
HELLS (helicase, lymphoid specific)	2	86.9	inactive
HELLS (helicase, lymphoid specific)	3	111	inactive
